According to PubChem BioAssay AID504842 (National Center for Advancing Translational Sciences (NCATS), 2011):
Screen size: about 330,000 compounds; about 100 (0.03%) were called active. This list was built around the results that the source calls inconclusive (neither active nor inactive); the mix of calls is not that of the screen. Calls follow the shape of the dose curve; as a rule, active = well fitted inhibition curve with a large enough effect; inconclusive = small, poorly fitted or top-dose-only effect; inactive = flat fitted curve, though single readings scatter. Potencies beside an inconclusive call are fits to weak or partial responses and may not hold up.

tested on: Chaperonin Mm-Cpn (Methanococcus maripaludis); experiment: Inhibitors of TCP-1 ring complex (TRiC) of Methanococcus maripaludis (MmCpn): qHTS; details: purified Mm-Cpn ATPase, ADP Transcreener TR-FRET; activity, negative = inhibition: at the top concentration; also: nearly all actives have a fitted effect of over 80% in size;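 as to Potency: enzyme at 25 nM with ATP substrate at 10 µM during the reaction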
Method in brief: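 Eu-cryptate anti-ADP/ADP-d2 competition gives a ratio inversely related to ADP. Enzyme at 25 nM was pre-exposed to compound for 10 min, then given 10 uM ATP for 30 min, 37°C throughout.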
% is scaled to controls: 0 for no effect and ±100 for the full control effect; potency is read from the fitted curve at half-maximal effect.

SMILES | Potency | activity, negative = inhibition
CCOC(=O)C1=C(CSc2nc(-c3ccccc3)ccc2C#N)OC(N)=C(C#N)C1c1ccc(OC)cc1 (stereo not given) | inconclusive: 112 µM [inhibitor, partial curve, poor fit] | 
CCN1CCN(C(=O)C2CCN(S(=O)(=O)c3cc(Cl)ccc3Cl)CC2)CC1 | inconclusive: 79.4 µM [inhibitor, single point] | 
CC(=O)NC1(C(Cl)(Cl)Cl)Oc2ccccc2O1 | inconclusive: 12.6 µM [inhibitor, single point] | 
COC(=O)c1[nH]c(C)c(/C(O)=C2\C(=O)C(=O)N(CCN3CCOCC3)C2c2cccnc2)c1C (stereo not given) | inconclusive: 50.1 µM [inhibitor, single point] | 
CC1CCC/C=C/C(=O)c2c(O)cc(O)cc2CC(=O)O1 (stereo not given) | inconclusive: 7.94 µM [inhibitor, partial curve, poor fit] | 
Cc1ccc(Oc2ccc(C(F)(F)F)cc2[N+](=O)[O-])c([N+](=O)[O-])n1 | inconclusive: 14.1 µM [inhibitor, single point] | 
CCOc1cccc(C(=O)Nc2nc(-c3ccc(S(=O)(=O)N4CCOCC4)cc3)cs2)c1 | inconclusive: 100 µM [inhibitor, single point] | 
CC1CC(=O)Nc2ccccc2N1S(=O)(=O)c1cccc(Cl)c1 (stereo not given) | inconclusive: 17.8 µM [inhibitor, single point] | 
O=C1c2nc3cc(-c4ccco4)[nH]n3c(=O)c2CN1Cc1ccccc1 |  | inactive: -1.2%
O=C(Nc1ccccn1)Nc1cccs1 | inconclusive: 25.1 µM [inhibitor, single point] | 
COc1cc(C2Nc3ccccc3NC3=C2C(=O)CC(C)(C)C3)cc(OC)c1OC (stereo not given) | inconclusive: 20 µM [inhibitor, single point] | 
CCC(C)N1CCC(Oc2ccc(C(=O)NCc3ccccn3)cc2)CC1 (stereo not given) | inconclusive: 22.4 µM [inhibitor, single point] | 
Cc1c(C(C)(C)C)c(C=S)n2ccccc12 |  | inactive: -1.39%
COc1ccc(O)c(CN2CCCC(N3CCc4ccccc4C3)C2)c1 (stereo not given) | inconclusive: 100 µM [inhibitor, single point] | 
CCOC(=O)CC(=O)CSc1nc2c(sc(=S)n2-c2ccc(C)c(C)c2)c(=O)[nH]1 |  | inactive: 0.909%
O=C(NCCN1CCOCC1)c1cc([N+](=O)[O-])ccc1Cl |  | inactive: -1.73%
CCCCn1c(SCC(=O)Nc2cccc(OC)c2)nc2ccc(N3CCOCC3)cc2c1=O | inconclusive: 100 µM [inhibitor, single point] | 
Cc1ccc(-c2cc(N)n(-c3ccc(C)cc3)n2)cc1 |  | inactive: -1.1%
Cc1cccc(OCC(=O)NCc2n[nH]c(=O)c3ccccc23)c1 | inconclusive: 501 µM [inhibitor, partial curve, poor fit] | 
Cn1c(=O)c2c(c3ccccc31)OC(=O)CC2c1cccnc1 (stereo not given) | inconclusive: 56.2 µM [inhibitor, single point] | 
Cc1nn2c(NCC(C)C)c3c(nc2c1-c1ccccc1)CCC3 |  | inactive: 0.858%
Cc1nc2scc(C)n2c(=O)c1S(=O)(=O)Nc1ccc(N2CCN(S(C)(=O)=O)CC2)cc1 |  | inactive: -2.65%
CCOc1ccc(C(=O)CCC(=O)NNC(=O)c2ccccc2O)cc1 | inconclusive: 20 µM [inhibitor, single point] | 

SMILES | Potency | activity, negative = inhibition
O=C(O)c1cc([N+](=O)[O-])cc([N+](=O)[O-])c1N1CCN(c2cccc(C(F)(F)F)c2)CC1 | inconclusive: 12.6 µM [inhibitor, single point] | 
Cc1ccc(Cc2nc(-c3ccccn3)no2)cc1 |  | inactive: 1.27%
CNC(=S)NNC(=O)c1cccc(C(F)(F)F)c1 | inconclusive: 3160 µM [inhibitor, partial curve, poor fit] | 
O=[N+]([O-])c1cccc(/C=C/c2nc(C=Nc3ccc4ccccc4c3)c(O)o2)c1 | inconclusive: 100 µM [inhibitor, single point] | 
COc1ccc(C)cc1S(=O)(=O)N(C)CC(=O)N1CCCCCC1 | inconclusive: 28.2 µM [inhibitor, single point] | 
COCCCNC(=S)N/N=C/c1ccc(O)cc1 |  | inactive: -3.57%
Nn1c(SCC(=O)NCc2ccccc2)nnc1C1CC1 |  | inactive: -0.395%
O=C(O)c1cc(S(=O)(=O)NCCOc2ccccc2)ccc1Cl | inconclusive: 100 µM [inhibitor, single point] | 
O=C(CSC1=NCCS1)Nc1ccc(S(=O)(=O)NC2CCCCC2)cc1 |  | inactive: 1.88%
O=C(CSc1ncccn1)NCCc1ccccc1 | inconclusive: 11.2 µM [inhibitor, single point] | 
CCCc1nnc(NC(=O)CN2C(=O)c3ccccc3C2=O)s1 | inconclusive: 100 µM [inhibitor, single point] | 
COC(=O)c1ccccc1-c1c2ccc(=N)cc-2oc2cc(N)ccc12 | inconclusive: 631 µM [inhibitor, partial curve, poor fit] | 
COc1cc(/C=N/NC(=O)C(=O)N2CCCCCC2)ccc1O | inconclusive: 100 µM [inhibitor, single point] | 
Cc1cccc(C)c1OCC(=O)NCc1nnc(SCC(=O)NC2CCCCC2)n1C |  | inactive: 1.25%
Oc1ccc(/C=N/NC(=S)NC2CC3CCC2C3)cc1 (stereo not given) | inconclusive: 70.8 µM [inhibitor, single point] | 
COc1ccc(N(C(=O)Cn2nnc3ccccc32)C(C(=O)NCc2ccco2)c2cccnc2)cc1 (stereo not given) | inconclusive: 15.8 µM [inhibitor, single point] | 
COc1ccc(-c2coc3cc(OC(C)=O)c(OC)cc3c2=O)cc1 |  | inactive: -0.887%
COc1cc(C(=O)N/N=C/c2cn(Cc3ccccc3)c3ccccc23)ccc1O |  | inactive: 1.69%
O=C(COC(=O)c1ccc([N+](=O)[O-])o1)Nc1nc2ccccc2s1 | inconclusive: 100 µM [inhibitor, single point] | 
COc1ccc(OC)c(NC(=O)Cc2csc(NC(=O)Nc3ccccc3OC)n2)c1 |  | inactive: -3.76%
COc1ccc2c(c1)CC/C2=N\OC(=O)c1cccc(C)c1 |  | inactive: 1.3%
COc1ccc(CCNC(=O)c2ccc3c(c2)N(Cc2ccc(F)cc2)CCS3)c(OC)c1 | inconclusive: 100 µM [inhibitor, partial curve, poor fit] | 

Whole records from above.
`O=C(CSc1ncccn1)NCCc1ccccc1` as listed: Potency: inconclusive: 11.2 µM [inhibitor, single point]
`COCCCNC(=S)N/N=C/c1ccc(O)cc1` as listed: activity, negative = inhibition: inactive: -3.57%
`O=C(O)c1cc(S(=O)(=O)NCCOc2ccccc2)ccc1Cl` as listed: Potency: inconclusive: 100 µM [inhibitor, single point]
